# Assay results reported in PubChem BioAssay AID504847 (National Center for Advancing Translational Sciences (NCATS), 2011).
# Sequences of proteins named here, by UniProt entry; tags and fusion partners are left off.
# UniProt P11473, whole entry, looked up: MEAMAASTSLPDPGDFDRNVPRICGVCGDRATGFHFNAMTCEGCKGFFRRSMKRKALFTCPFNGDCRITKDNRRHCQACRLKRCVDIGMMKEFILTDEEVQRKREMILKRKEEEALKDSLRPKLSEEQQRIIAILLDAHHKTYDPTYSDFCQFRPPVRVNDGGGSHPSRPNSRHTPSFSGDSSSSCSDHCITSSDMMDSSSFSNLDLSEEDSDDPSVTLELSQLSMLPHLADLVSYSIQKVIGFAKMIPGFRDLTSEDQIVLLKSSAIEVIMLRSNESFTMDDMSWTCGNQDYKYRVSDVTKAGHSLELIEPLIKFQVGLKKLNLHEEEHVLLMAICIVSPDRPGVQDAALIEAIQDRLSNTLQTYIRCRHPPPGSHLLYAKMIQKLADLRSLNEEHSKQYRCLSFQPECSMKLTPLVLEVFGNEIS
# About 3,700 (0.93%) of roughly 400,000 compounds were called active. Inconclusive means that the source gave no clear call. Such entries were picked first, then a sample of the others. The call rests on the fitted dose curve; in most records, active means well fitted inhibition curve with a large enough effect; inconclusive means small, poorly fitted or top-dose-only effect, or another doubt; inactive means no such curve, though single readings can be large or run the other way. Where the call is inconclusive, the potency comes from a doubtful curve fit. Where a structure was tested more than once in an assay, its records may differ in their call.
# Biological target: Vitamin D3 receptor (Homo sapiens) (UniProt P11473)
# Assay: Inhibitors of the vitamin D receptor (VDR): qHTS
# Settings: VDR-SRC2-3 peptide fluorescence polarization, 2 h; max response, negative = inhibition: hits give low values
# In short: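 Measured by FP: displacement of SRC2-3 coactivator peptide from VDR by library compounds, following a two-hour ambient incubation.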
# On the % scale 0 is the no-effect control and ±100 the full control effect; potency means the concentration at half of the fitted maximal effect.
Compound,Potency,"max response, negative = inhibition"
Cc1ccc(C(=O)NCC(=O)OCC(=O)/C=C2\N(C)c3ccccc3C2(C)C)cc1C,"inconclusive: 10 µM [inhibitor, full curve, poor fit]",–
O=C(CSc1nnc(C2CCCCC2)n1Cc1ccccc1)NCc1ccco1,"inconclusive: 20 µM [inhibitor, single point]",–
Cc1ccc(S(=O)(=O)N/N=C/c2cc([N+](=O)[O-])ccc2O)cc1[N+](=O)[O-],"inconclusive: 89.1 µM [inhibitor, single point]",–
CC(C)N(Cc1cc2ccccc2[nH]c1=O)C(=O)c1ccco1,–,inactive: 11.6%
CSc1nc(O)c(Nc2ccccc2)c(=O)[nH]1,"inconclusive: 28.2 µM [inhibitor, full curve, poor fit]",–
COc1ccc(NC(=O)CSCC(=O)Nc2nnc(CC(C)C)s2)cc1,"inconclusive: 0.891 µM [inhibitor, partial curve, poor fit]",–
COc1ccc(-n2nc3c(N4CCC(C(=O)NCC(C)c5ccccc5)CC4)nnc(C)c3c2C)cc1 (centres undefined),"inconclusive: 2.82 µM [inhibitor, partial curve, poor fit]",–
O=C(CC1SC(N2CCCCC2)=NC1=O)Nc1cccc(C(=O)Nc2ncccc2O)c1 (centres undefined),–,inactive: -0.45%
O=C(CC1(O)C(=O)N(CCc2ccccc2)c2ccc(Br)cc21)c1ccccc1O (centres undefined),"inconclusive: 70.8 µM [inhibitor, single point]",–
CC(C)c1ccc(NC(=S)NN2CCOCC2)cc1,"inconclusive: 1.12 µM [inhibitor, full curve, poor fit]",–
O=C(COC(=O)/C=C/c1ccco1)NCc1ccccc1Cl,–,inactive: 5.7%
CC1=CC(=C(c2ccc(N)cc2)c2ccc(N)cc2)C=CC1=N,"inconclusive: 44.7 µM [inhibitor, partial curve]",–
COc1cccc(N/C=C(\C#N)c2ccc(OCCCF)cc2)c1,"inconclusive: 89.1 µM [inhibitor, single point]",–
COCCNc1nnc(Cc2ccc(Cl)cc2)c(=O)[nH]1,–,inactive: 36.6%
O=c1nc2s/c(=C\c3ccco3)c(=O)n2nc1Cc1ccccc1,"inconclusive: 11.2 µM [inhibitor, partial curve, poor fit]",–
O=C1C=CC(=O)N1c1ccc(N2CCCCC2)cc1,active: 17.8 µM,–
CCCN1C(=O)C(O)(CC(=O)c2cccc(OC)c2)c2ccccc21 (centres undefined),"inconclusive: 100 µM [inhibitor, single point]",–
Cc1ccc(Cn2ccc(NC(=O)c3cc(-c4ccc(Cl)c(Cl)c4)on3)n2)cc1,–,inactive: -4.26%
COc1ccc(OCCOCCOc2ccc(C)cc2[N+](=O)[O-])cc1,"inconclusive: 79.4 µM [inhibitor, single point]",–
CCOC(=O)/C=C/C(=O)OCC(=O)NC(c1ccccc1)c1ccccc1,"inconclusive: 56.2 µM [inhibitor, partial curve, poor fit]",–
O=C(Nc1cccc2c1CCCC2)c1ccc(Cl)c([N+](=O)[O-])c1,–,inactive: 9.32%
CN(Cc1ccco1)c1ncnc2ccc(-c3ccc4c(c3)OCO4)cc12,active: 39.8 µM,–

Compound,Potency,"max response, negative = inhibition"
Cc1cccc(CNc2ncncc2-c2ccccc2C(F)(F)F)c1,"inconclusive: 39.8 µM [inhibitor, full curve]",–
Cc1ccc(/C=C2/CNC/C(=C\c3ccc(C)cc3)C2=O)cc1,active: 2 µM,–
O=C(COc1ccc(-c2ccccc2)cc1)N1CCN(S(=O)(=O)Cc2ccccc2)CC1,–,inactive: -16.9%
Cc1c(C(=O)NCc2cccnc2)oc2ccc(S(=O)(=O)N3CC(C)CC(C)C3)cc12 (centres undefined),"inconclusive: 100 µM [inhibitor, single point]",–
COc1cc(NS(=O)(=O)c2ccc(NC(=S)NC(=O)c3sc4cc(F)ccc4c3Cl)cc2)nc(OC)n1,"inconclusive: 89.1 µM [inhibitor, single point]",–
O=C(CN1CCOCC1)Nc1cc(C(F)(F)F)ccc1Cl,"inconclusive: 89.1 µM [inhibitor, single point]",–
O=C(Nc1ccc(CN2CCCCC2)cc1)c1sc2ccccc2c1Cl,–,inactive: 12.3%
C=CCNc1nnc(Cc2ccc(C(C)C)cc2)c(=O)[nH]1,–,inactive: 0.942%
Cc1ccc(C)c(/C=C/C(=O)c2ccccc(=O)c2O)c1,active: 44.7 µM,–
Cc1cc2cc(CNC(=O)c3ccc(S(=O)(=O)N(C)C)cc3)ccc2n1C,–,inactive: 0.354%
Cc1ccc(NC(=O)c2ccc3c(SCC(=O)O)c4c(nc3c2)CCCC4)c(Br)c1,"inconclusive: 31.6 µM [inhibitor, single point]",–
NS(=O)(=O)Nc1c(Br)cc(Br)c2cccnc12,"inconclusive: 44.7 µM [inhibitor, partial curve, poor fit]",–
O=C(Nc1ccc(Br)cc1F)c1ccc2nsnc2c1,"inconclusive: 20 µM [inhibitor, partial curve, poor fit]",–
CC(C)C(NC(=O)c1cccnc1)C(=O)O (centres undefined),active: 79.4 µM,–
O=C(N/N=C/c1cccnc1)c1cc(-c2ccc(Br)cc2)nc2ccccc12,–,inactive: -19.9%
O=C(NCC(c1ccco1)N1CCc2ccccc21)C(=O)Nc1ccccc1F (centres undefined),"inconclusive: 89.1 µM [inhibitor, single point]",–
COc1ccc(C(=O)CCN2CCc3cc(OC)c(OC)cc3C2)cc1,"inconclusive: 35.5 µM [inhibitor, single point]",–
COc1cccc(/C=N/NC(=O)CSCC(=O)Nc2ccccc2)c1O,–,inactive: 12.5%
COc1cc(/C=C2\C(=N)N3N=CSC3=NC2=O)ccc1OS(=O)(=O)c1ccccc1[N+](=O)[O-],"inconclusive: 89.1 µM [inhibitor, single point]",–
Cc1ccc(-n2c(C)cc(/C=N/NC(=O)c3ccncc3)c2C)cc1C,"inconclusive: 89.1 µM [inhibitor, single point]",–
CC(C)c1ccc(C(=O)CSc2ncn[nH]2)cc1,active: 79.4 µM,–
CCOc1ccc(/C=N/NC(=O)C2(O)c3ccccc3-c3ccccc32)cc1,–,inactive: -23.7%
